Laboratory results from the supplement of paper PMC10849652.
This is one part of the list.

The chains behind the UniProt entries cited, without tags or fusion partners. Where a name states a change or a piece, a line headed by the entry shows the natural chain unless it says otherwise.
UniProt Q8WYQ5: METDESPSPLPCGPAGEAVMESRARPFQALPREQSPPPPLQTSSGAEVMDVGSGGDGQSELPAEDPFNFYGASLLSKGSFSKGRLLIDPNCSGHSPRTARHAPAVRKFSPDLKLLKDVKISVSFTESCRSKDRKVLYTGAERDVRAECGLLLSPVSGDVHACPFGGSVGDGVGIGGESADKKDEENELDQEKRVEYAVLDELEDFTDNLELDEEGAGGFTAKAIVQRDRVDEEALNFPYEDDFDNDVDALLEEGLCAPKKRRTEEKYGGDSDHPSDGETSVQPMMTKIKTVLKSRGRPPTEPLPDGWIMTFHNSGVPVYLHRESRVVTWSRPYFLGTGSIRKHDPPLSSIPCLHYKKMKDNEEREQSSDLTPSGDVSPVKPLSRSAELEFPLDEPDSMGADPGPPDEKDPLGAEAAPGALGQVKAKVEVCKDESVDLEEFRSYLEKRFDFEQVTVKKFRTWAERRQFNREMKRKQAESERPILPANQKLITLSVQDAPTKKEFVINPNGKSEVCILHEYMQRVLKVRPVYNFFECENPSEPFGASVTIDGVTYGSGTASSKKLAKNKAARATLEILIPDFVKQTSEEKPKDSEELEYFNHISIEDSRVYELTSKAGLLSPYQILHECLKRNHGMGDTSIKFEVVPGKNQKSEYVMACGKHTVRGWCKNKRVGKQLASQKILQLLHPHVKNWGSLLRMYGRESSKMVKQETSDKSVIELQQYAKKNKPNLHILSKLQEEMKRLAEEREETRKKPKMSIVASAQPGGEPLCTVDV
UniProt Q96LJ7: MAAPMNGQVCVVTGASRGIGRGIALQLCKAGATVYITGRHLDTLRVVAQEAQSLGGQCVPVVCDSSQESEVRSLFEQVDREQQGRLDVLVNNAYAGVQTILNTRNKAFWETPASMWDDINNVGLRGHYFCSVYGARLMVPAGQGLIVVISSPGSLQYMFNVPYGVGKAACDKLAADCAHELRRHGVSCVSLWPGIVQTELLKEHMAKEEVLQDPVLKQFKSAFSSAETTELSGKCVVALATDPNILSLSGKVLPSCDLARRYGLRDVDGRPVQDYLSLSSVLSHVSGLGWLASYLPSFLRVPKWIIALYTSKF
UniProt Q7L2E3: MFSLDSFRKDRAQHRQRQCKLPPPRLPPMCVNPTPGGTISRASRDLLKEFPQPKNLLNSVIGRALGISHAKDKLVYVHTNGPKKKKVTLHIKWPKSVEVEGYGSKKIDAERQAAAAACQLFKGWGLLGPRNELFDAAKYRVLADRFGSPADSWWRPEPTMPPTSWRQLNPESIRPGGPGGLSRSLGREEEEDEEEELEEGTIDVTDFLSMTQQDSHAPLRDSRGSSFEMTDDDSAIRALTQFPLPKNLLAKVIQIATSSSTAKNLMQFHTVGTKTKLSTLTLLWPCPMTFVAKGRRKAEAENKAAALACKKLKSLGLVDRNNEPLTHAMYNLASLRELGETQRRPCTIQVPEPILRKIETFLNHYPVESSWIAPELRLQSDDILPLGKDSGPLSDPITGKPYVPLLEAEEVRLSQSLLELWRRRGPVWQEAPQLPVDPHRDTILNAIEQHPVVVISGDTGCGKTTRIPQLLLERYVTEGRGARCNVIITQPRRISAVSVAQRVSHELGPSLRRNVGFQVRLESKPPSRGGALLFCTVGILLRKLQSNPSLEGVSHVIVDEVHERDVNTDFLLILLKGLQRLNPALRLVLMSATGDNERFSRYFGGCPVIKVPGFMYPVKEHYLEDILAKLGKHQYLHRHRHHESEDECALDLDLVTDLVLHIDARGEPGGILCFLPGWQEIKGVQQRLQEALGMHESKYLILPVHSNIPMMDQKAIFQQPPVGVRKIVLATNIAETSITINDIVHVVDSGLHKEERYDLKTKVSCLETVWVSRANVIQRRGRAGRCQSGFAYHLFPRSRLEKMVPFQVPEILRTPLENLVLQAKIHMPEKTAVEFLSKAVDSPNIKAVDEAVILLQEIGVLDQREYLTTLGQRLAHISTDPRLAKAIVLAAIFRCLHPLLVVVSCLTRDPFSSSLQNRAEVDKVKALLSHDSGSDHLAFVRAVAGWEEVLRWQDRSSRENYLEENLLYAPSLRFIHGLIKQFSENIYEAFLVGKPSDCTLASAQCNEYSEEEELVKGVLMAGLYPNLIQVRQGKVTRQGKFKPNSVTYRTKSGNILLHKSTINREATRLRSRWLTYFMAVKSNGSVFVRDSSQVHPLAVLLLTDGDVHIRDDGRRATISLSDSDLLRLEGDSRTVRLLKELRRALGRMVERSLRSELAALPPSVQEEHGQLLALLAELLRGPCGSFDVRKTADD
UniProt Q96EY1: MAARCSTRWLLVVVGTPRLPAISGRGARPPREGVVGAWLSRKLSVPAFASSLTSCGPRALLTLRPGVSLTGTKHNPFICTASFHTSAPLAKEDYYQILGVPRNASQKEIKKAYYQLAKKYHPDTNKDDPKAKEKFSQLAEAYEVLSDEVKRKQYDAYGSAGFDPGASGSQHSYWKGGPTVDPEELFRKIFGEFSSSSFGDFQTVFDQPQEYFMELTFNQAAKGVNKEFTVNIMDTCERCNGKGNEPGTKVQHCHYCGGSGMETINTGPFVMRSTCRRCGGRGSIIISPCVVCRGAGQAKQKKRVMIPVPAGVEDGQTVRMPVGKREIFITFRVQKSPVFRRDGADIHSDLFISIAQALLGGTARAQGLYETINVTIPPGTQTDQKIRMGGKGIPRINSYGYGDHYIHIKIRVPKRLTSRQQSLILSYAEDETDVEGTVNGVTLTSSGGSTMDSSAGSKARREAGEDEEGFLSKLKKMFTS
UniProt Q5SXM8: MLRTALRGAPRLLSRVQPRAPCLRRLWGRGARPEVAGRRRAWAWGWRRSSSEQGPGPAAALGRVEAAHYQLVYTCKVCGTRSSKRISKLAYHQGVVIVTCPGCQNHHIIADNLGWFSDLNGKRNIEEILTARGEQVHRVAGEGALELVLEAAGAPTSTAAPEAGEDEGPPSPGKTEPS
UniProt Q6UWP2: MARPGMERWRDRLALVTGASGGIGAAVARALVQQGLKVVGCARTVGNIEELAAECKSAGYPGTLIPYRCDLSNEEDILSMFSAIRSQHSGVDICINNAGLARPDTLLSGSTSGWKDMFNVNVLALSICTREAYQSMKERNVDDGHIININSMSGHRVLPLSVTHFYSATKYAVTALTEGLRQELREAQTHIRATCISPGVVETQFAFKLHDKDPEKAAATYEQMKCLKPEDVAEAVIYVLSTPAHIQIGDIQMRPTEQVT
UniProt Q14147: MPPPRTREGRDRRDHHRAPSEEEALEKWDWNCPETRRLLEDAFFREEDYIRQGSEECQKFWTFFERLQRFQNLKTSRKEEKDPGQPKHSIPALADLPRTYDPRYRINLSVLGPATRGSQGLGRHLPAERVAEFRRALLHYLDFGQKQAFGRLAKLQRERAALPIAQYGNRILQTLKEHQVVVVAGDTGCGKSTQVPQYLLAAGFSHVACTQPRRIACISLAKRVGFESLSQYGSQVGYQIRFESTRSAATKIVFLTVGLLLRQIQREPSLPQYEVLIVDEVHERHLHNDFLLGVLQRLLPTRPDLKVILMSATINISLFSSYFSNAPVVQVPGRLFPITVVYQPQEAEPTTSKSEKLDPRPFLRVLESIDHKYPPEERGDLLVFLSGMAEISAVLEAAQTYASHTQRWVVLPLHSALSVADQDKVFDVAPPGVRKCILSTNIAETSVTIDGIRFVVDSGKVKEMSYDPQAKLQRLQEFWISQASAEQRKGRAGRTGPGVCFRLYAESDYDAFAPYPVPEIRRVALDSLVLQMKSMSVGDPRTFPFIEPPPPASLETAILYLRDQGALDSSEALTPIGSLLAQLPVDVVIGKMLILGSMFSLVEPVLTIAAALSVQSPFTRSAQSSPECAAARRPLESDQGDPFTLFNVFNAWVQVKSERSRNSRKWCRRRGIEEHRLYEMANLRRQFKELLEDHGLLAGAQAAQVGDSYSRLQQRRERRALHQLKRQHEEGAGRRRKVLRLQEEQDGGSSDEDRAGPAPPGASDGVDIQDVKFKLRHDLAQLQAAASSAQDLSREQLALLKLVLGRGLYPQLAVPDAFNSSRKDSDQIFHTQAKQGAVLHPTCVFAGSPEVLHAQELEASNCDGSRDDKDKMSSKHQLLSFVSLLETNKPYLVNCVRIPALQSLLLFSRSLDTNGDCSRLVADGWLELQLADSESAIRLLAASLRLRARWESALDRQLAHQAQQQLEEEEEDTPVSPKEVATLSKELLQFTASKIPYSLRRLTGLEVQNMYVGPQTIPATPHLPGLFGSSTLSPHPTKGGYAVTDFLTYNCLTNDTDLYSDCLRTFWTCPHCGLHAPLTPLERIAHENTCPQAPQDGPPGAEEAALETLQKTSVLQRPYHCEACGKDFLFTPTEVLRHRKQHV
UniProt P50570: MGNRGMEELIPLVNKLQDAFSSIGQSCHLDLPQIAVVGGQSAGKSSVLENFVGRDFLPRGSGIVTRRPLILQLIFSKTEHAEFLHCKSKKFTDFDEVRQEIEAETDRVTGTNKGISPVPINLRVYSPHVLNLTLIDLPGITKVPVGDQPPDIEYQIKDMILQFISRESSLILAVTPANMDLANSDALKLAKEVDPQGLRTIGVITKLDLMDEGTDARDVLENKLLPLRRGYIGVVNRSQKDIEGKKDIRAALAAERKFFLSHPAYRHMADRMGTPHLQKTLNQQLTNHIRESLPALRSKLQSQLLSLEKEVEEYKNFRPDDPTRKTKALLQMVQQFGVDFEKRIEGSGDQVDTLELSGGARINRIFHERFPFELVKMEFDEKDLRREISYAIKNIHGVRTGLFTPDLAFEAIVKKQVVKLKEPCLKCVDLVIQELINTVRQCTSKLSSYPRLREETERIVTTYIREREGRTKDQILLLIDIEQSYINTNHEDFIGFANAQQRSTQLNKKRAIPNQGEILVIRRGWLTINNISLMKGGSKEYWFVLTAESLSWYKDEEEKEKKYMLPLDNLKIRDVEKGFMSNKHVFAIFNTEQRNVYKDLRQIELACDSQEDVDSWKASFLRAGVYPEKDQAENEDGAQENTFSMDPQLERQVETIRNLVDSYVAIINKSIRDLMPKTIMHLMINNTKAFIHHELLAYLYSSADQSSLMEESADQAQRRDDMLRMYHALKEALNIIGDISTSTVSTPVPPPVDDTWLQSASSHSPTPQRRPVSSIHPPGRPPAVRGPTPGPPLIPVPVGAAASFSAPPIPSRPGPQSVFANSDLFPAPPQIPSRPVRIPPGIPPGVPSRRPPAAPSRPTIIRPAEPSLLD
UniProt Q05193: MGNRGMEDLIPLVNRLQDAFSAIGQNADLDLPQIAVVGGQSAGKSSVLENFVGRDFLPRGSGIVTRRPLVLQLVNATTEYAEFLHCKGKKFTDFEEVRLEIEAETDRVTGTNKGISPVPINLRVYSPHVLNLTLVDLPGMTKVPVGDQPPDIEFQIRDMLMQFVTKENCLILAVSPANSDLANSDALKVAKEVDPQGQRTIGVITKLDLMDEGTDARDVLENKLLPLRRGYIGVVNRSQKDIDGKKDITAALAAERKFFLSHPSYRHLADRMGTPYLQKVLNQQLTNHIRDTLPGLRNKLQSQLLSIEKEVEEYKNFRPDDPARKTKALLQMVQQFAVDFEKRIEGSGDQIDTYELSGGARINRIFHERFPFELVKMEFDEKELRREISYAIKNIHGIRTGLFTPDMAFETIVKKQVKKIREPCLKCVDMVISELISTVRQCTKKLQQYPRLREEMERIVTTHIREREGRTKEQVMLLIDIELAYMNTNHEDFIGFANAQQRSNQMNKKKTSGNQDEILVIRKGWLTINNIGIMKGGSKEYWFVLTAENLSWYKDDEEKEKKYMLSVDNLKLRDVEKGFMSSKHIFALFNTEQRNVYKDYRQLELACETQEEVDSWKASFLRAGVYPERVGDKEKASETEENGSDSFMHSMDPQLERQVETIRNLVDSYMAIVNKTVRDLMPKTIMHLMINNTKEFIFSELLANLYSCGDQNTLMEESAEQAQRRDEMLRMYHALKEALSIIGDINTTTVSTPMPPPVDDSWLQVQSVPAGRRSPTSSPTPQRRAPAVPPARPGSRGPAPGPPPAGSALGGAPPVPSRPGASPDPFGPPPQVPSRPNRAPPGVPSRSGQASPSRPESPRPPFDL
UniProt O60496: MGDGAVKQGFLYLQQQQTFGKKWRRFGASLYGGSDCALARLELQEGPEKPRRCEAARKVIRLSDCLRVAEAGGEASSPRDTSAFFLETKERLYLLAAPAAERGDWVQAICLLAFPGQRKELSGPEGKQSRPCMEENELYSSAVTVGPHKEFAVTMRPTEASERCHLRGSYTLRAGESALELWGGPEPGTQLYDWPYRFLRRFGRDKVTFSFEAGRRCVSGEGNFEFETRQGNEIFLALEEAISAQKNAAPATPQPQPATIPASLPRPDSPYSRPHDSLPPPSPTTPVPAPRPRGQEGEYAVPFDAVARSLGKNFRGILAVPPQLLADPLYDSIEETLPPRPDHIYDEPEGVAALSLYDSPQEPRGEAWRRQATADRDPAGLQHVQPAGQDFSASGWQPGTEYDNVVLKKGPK

Legend:
Assay in all cases: log2 fold change, soluble protein after heating vs DMSO (PISA); higher = thermal stabilisation; K562 lysate, 10 uM; active = over 0.2 and 3.5 SD of the protein, either way, in both replicates (recomputed)
alvocidib = compound: CN1CC[C@H](c2c(O)cc(O)c3c(=O)cc(-c4ccccc4Cl)oc23)[C@H](O)C1 [alvocidib]
Method in brief: (§1)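 Following dounce homogenisation of K562 pellets in PBS pH 7.4 with 1 mM MgCl2, crude extract at 1 mg/mL protein was incubated for 30 min with 10 μM compound. Aliquots were then heated for 3 min over 48°C-58°C and pooled, NP-40 was added to 0.5% at 4°C, and soluble protein was recovered as the supernatant at 21,000xg for 90 min. Channel-sum-equalised TMTpro 16plex LC-MS/MS quantified this protein. Each value, from duplicates, is a log-two fold change in thermal stability relative to solvent controls.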

Tubastatin A = compound: CN1CCc2c(c3ccccc3n2Cc2ccc(C(=O)NO)cc2)C1 [Tubastatin A]
Method in brief: as §1

[1] = compound: CNC(=O)C1=CC=CC=C1NC2=NC(=NC=C2Cl)NC3=C(C=C(C=C3)N4CCOCC4)OC
Method in brief: as §1

defactinib = compound: CNC(=O)c1ccc(Nc2ncc(C(F)(F)F)c(NCc3nccnc3N(C)S(C)(=O)=O)n2)cc1 [defactinib]
Method in brief: as §1

[2] = compound: CNc1nc(-c2ccc3c(N)n[nH]c3c2)cc(N2C[C@@H](C(=O)NC3CCCCC3)CC[C@H]2C)n1
Method in brief: as §1

encorafenib = compound: COC(=O)N[C@@H](C)CNc1nccc(-c2cn(C(C)C)nc2-c2cc(Cl)cc(NS(C)(=O)=O)c2F)n1 [encorafenib]
Method in brief: as §1

[3] = compound: COC(=O)[C@H](CCSC)NC(=O)C1=C(C=C(C=C1)NC[C@H](CS)N)C2=CC=CC=C2
Method in brief: as §1

alisertib = compound: COc1cc(Nc2ncc3c(n2)-c2ccc(Cl)cc2C(c2c(F)cccc2OC)=NC3)ccc1C(=O)O [alisertib]
Method in brief: as §1

[4] = compound: COc1cc2nc(-c3cc(F)ccc3O)nc(N[C@@H]3CNC[C@H]3C(C)(C)O)c2cc1OC
Method in brief: as §1

gefitinib = compound: COc1cc2ncnc(Nc3ccc(F)c(Cl)c3)c2cc1OCCCN1CCOCC1 [gefitinib]
Method in brief: as §1

Measured: log2 fold change

DGAT1 (UniProt O75907)
inactive: alvocidib 0.044 | Tubastatin A -0.101 | [1] 0.057 | defactinib -0.033 | [2] 0.102 | encorafenib 0.011 | [3] 0.08 | alisertib 0.206 | [4] 0.011 | gefitinib -0.007

DGKQ (UniProt P52824)
inactive: alvocidib -0.018 | Tubastatin A -0.184 | [1] 0.069 | defactinib 0.018 | [2] 0.073 | encorafenib -0.19 | [3] -0.075 | alisertib -0.09 | [4] 0.038 | gefitinib 0.15

DGCR8 (UniProt Q8WYQ5)
inactive: alvocidib 0.009 | Tubastatin A -0.115 | [1] -0.009 | defactinib -0.046 | [2] 0.042 | encorafenib 0.018 | [3] 0.081 | alisertib 0.022 | [4] 0.027 | gefitinib -0.034

DNAJC2 (UniProt Q99543)
inactive: alvocidib 0.003 | Tubastatin A -0.187 | [1] 0.022 | defactinib 0.024 | [2] -0.089 | encorafenib -0.014 | [3] 0.142 | alisertib -0.018 | [4] -0.031 | gefitinib -0.022

DHRS1 (UniProt Q96LJ7)
inactive: alvocidib -0.057 | Tubastatin A 0.02 | [1] 0.188 | defactinib -0.238 | [2] -0.012 | encorafenib 0.164 | [3] -0.102 | alisertib 0.059 | [4] 0.028 | gefitinib -0.075

DHX30 isoform 2 (UniProt Q7L2E3)
inactive: alvocidib -0.007 | Tubastatin A -0.037 | [1] 0.02 | defactinib 0.012 | [2] 0.002 | encorafenib 0.03 | [3] -0.154 | alisertib -0.018 | [4] -0.011 | gefitinib 0

DHFR (UniProt P00374)
inactive: alvocidib 0.03 | Tubastatin A -0.111 | [1] -0.001 | defactinib 0.039 | [2] -0.023 | encorafenib 0.01 | [3] 0.141 | alisertib 0.017 | [4] -0.192 | gefitinib 0.028

DNAH10 (UniProt Q8IVF4)
inactive: alvocidib -0.248 | Tubastatin A 0.056 | [1] -0.086 | defactinib -0.074 | [2] 0.246 | encorafenib -0.04 | [3] -0.001 | alisertib 0.027 | [4] 0.046 | gefitinib 0.043

Reprinted from the entries so far (3 entries):
DGKQ (UniProt P52824)
inactive: alvocidib -0.018 | Tubastatin A -0.184 | [1] 0.069 | defactinib 0.018 | [2] 0.073 | encorafenib -0.19 | [3] -0.075 | alisertib -0.09 | [4] 0.038 | gefitinib 0.15

DGCR8 (UniProt Q8WYQ5)
inactive: alvocidib 0.009 | Tubastatin A -0.115 | [1] -0.009 | defactinib -0.046 | [2] 0.042 | encorafenib 0.018 | [3] 0.081 | alisertib 0.022 | [4] 0.027 | gefitinib -0.034

DNAJC2 (UniProt Q99543)
inactive: alvocidib 0.003 | Tubastatin A -0.187 | [1] 0.022 | defactinib 0.024 | [2] -0.089 | encorafenib -0.014 | [3] 0.142 | alisertib -0.018 | [4] -0.031 | gefitinib -0.022

(further entries)

DOK3 (UniProt Q7L591)
inactive: alvocidib -0.032 | Tubastatin A 0.017 | [1] -0.005 | defactinib -0.137 | [2] 0.112 | encorafenib -0.065 | [3] 0.028 | alisertib -0.076 | [4] -0.045 | gefitinib 0.002

DIDO1 (UniProt Q9BTC0)
inactive: alvocidib -0.027 | Tubastatin A -0.032 | [1] -0.019 | defactinib 0.003 | [2] 0.053 | encorafenib 0.069 | [3] 0.043 | alisertib -0.07 | [4] -0.025 | gefitinib 0.025

DHX9 (UniProt Q08211)
inactive: alvocidib 0.008 | Tubastatin A -0.067 | [1] 0.003 | defactinib 0.002 | [2] -0.003 | encorafenib 0.019 | [3] -0.019 | alisertib 0.001 | [4] 0.003 | gefitinib -0.017

DHCR24 (UniProt Q15392)
inactive: alvocidib -0.007 | Tubastatin A 0.119 | [1] -0.04 | defactinib -0.027 | [2] 0.238 | encorafenib 0.073 | [3] 0.056 | alisertib -0.004 | [4] -0.003 | gefitinib 0.111

DNAJB14 (UniProt Q8TBM8)
inactive: alvocidib -0.014 | Tubastatin A -0.01 | [1] -0.029 | defactinib 0.019 | [2] 0.033 | encorafenib -0.047 | [3] -0.096 | alisertib 0.039 | [4] 0.09 | gefitinib -0.026

DOCK7 (UniProt Q96N67)
inactive: alvocidib 0.007 | Tubastatin A -0.238 | [1] 0.006 | defactinib -0.014 | [2] -0.035 | encorafenib 0.006 | [3] 0.038 | alisertib 0.032 | [4] 0.026 | gefitinib 0.017

DNAJA3 (UniProt Q96EY1)
inactive: alvocidib 0.072 | Tubastatin A -0.005 | [1] 0.017 | defactinib 0.037 | [2] -0.023 | encorafenib 0.015 | [3] 0.04 | alisertib 0.032 | [4] -0.037 | gefitinib -0.009

DNLZ (UniProt Q5SXM8)
inactive: alvocidib 0.03 | Tubastatin A 0.135 | [1] 0.013 | alisertib 0.061 | [4] -0.085 | gefitinib -0.027

DIAPH1 (UniProt H9KV28)
inactive: alvocidib -0.039 | Tubastatin A 0.032 | [1] 0.036 | defactinib 0.012 | encorafenib 0.054 | [3] 0.213 | alisertib -0.012 | [4] 0.026 | gefitinib -0.005

DHX40 (UniProt Q8IX18)
inactive: alvocidib 0.017 | Tubastatin A -0.1 | [1] -0.01 | defactinib 0.107 | [2] -0.047 | encorafenib 0.022 | [3] 0.04 | alisertib -0.078 | [4] -0.025 | gefitinib 0.051

DHRS11 (UniProt Q6UWP2)
inactive: alvocidib -0.001 | Tubastatin A -0.083 | [1] 0.055 | defactinib 0.021 | [2] 0.031 | encorafenib 0.024 | [3] 0.109 | alisertib -0.074 | [4] 0.031 | gefitinib -0.022

DONSON (UniProt Q9NYP3)
inactive: alvocidib 0.04 | Tubastatin A -0.079 | [1] 0.069 | [2] 0.005 | alisertib -0.05 | [4] 0.028 | gefitinib 0.075

DHX34 (UniProt Q14147)
inactive: alvocidib -0.057 | Tubastatin A 0.065 | [1] 0.017 | defactinib -0.074 | [2] 0.08 | encorafenib -0.015 | [3] -0.055 | alisertib -0.022 | gefitinib -0.08

DNM2 isoform 4 (UniProt P50570)
inactive: alvocidib -0.16 | Tubastatin A -0.095 | [1] -0.278 | [2] 0.055 | encorafenib 0.13 | [3] 0.06 | alisertib -0.007 | [4] -0.032 | gefitinib 0.029

DMD isoform 14 (UniProt P11532)
inactive: alvocidib 0.256 | Tubastatin A 0.141 | [2] 0.315

DNM1 (UniProt Q05193)
inactive: alvocidib -0.014 | Tubastatin A -0.236 | [1] 0.017 | [2] -0.206 | alisertib 0.072 | [4] -0.07 | gefitinib 0.134

DHDDS isoform 2 (UniProt Q86SQ9)
inactive: alvocidib 0.031 | Tubastatin A -0.037 | [1] -0.034 | defactinib 0 | [2] -0.006 | encorafenib -0.023 | [3] -0.018 | alisertib -0.07 | [4] 0.027 | gefitinib 0.015

DIPK2A (UniProt Q8NDZ4)
inactive: alvocidib -0.075 | Tubastatin A 0.017 | [1] 0.033 | defactinib -0.01 | [2] 0.039 | encorafenib 0.211 | [3] -0.066 | [4] -0.036

DOK2 (UniProt O60496)
inactive: alvocidib -0.213 | Tubastatin A -0.195 | [1] -0.159 | [4] 0.094

DNAJC16 (UniProt Q9Y2G8)
inactive: alvocidib 0.175 | Tubastatin A 0.106 | [2] -0.152 | alisertib 0.032 | gefitinib -0.118

DHX38 (UniProt Q92620)
inactive: alvocidib 0.007 | Tubastatin A 0.006 | [1] 0.033 | defactinib 0.034 | [2] 0.005 | encorafenib 0 | [3] 0.043 | alisertib 0.013 | [4] -0.032 | gefitinib -0.02

DMAP1 (UniProt Q9NPF5)
inactive: alvocidib 0.095 | Tubastatin A -0.045 | [1] 0.005 | defactinib 0.008 | [2] -0.026 | encorafenib 0.039 | [3] 0.049 | alisertib -0.106 | [4] -0.047 | gefitinib 0.055

DGKH (UniProt Q86XP1)
inactive: alvocidib 0.039 | Tubastatin A 0.155 | [1] 0.037 | defactinib -0.072 | [2] -0.104 | encorafenib 0.014 | [3] 0.094 | alisertib 0.045 | gefitinib 0.226

DHX32 (UniProt Q7L7V1)
inactive: alvocidib 0.019 | Tubastatin A 0.027 | [1] 0.044 | defactinib -0.043 | encorafenib 0.062 | [3] 0.048 | alisertib 0.017 | gefitinib 0.02

DHX8 (UniProt Q14562)
inactive: alvocidib -0.051 | Tubastatin A 0 | [1] -0.059 | defactinib -0.016 | [2] -0.095 | encorafenib 0.047 | [3] -0.042 | alisertib 0.002 | [4] -0.006 | gefitinib 0.065

DNAJB1 (UniProt M0R128)
inactive: alvocidib -0.073 | Tubastatin A 0.152 | [1] -0.029 | alisertib 0.109 | [4] 0.028 | gefitinib 0.347
